In US7700318 (AMPROTEIN, dated 2010):
No constants are given. Whether binding was seen depends on the method and setting. Some binding calls cover weakened binding; strength is not graded here.

By UniProt entry, the sequences of proteins in these tests, tags left out. Residues count along the entry.
UniProt P14778, residues 18-336: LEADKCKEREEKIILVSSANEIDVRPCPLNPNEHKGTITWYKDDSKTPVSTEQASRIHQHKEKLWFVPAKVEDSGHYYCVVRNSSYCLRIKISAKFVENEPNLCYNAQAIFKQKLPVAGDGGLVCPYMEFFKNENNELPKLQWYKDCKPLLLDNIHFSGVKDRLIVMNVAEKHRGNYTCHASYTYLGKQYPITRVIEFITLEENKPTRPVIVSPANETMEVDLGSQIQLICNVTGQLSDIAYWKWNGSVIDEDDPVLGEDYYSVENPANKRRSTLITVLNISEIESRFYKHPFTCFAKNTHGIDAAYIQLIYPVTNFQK
UniProt P18510, residues 26-177: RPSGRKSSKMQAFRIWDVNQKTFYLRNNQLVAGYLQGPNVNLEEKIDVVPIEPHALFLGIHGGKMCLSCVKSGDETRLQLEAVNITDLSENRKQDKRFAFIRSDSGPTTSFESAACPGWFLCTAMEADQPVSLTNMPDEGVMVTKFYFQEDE

Key:
[1] = target: recombinant human IL-1 receptor extracellular domain (human) (UniProt P14778); test: IL-1 receptor binding ELISA (FIG. 5)
[2] = target: recombinant human IL-1 receptor extracellular domain (human) (UniProt P14778); test: ELISA: test proteins coated on 96-well plate, IL-1 receptor extracellular domain incubated at 37 C, rabbit anti human IL-1 receptor antibodies and goat anti rabbit HRP (FIG. 5)

binding [1]: binds | binding [2]: binds
Substance: IL-1ra (KINERET) (from UniProt P18510 26-177) (ligand)
